These results are taken from publication PMC3071830.

By UniProt entry, the sequences of proteins in these tests, tags left out.
UniProt P61961: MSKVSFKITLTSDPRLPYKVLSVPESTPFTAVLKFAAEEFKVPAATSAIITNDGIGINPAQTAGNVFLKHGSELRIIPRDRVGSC

These are yes or no findings as the source states them, for the method shown. Binding seen in cells or lysates may run through a third protein. A yes stands for co-enrichment or nearness to the bait. Other partners may have been found.

The target in this experiment is STrEP-UFM1 (ubiquitin-fold modifier 1 with an N-terminal STrEP-tag) (mouse) (UniProt P61961). The experiment can be described thus: affinity purification with mass spectrometry; STrEP-UFM1 from transfected MIN6 cells (2 h 10 mg/l cycloheximide) held on STrEP-Tactin beads, lysate in S1 buffer; eluate on SDS-PAGE, Coomassie bands absent from the empty-vector control identified by MALDI TOF/TOF.

B1: UBA5; Ubiquitin-like modifier-activating enzyme 5, endogenous (enzyme, UniProt Q8VE47 1-403)
chain: MADSVERLRQRVEELEQELARERTRRSGGDGHCGRTRIQEMSDEVLDSNPYSRLMALKRMGIVSDYKKIRTYAVAIVGVGGVGSVTAEMLTRCGIGKLLLFDYDKVELANMNRLFFQPYQAGLSKVHAAEHTLRNINPDVLFEVHNYNITTVEHFEHFMNRISNGGLEEGQPVDLVLSCVDNFEARMAINTACNELGQTWMESGVSENAVSGHIQLMIPGESACFACAPPLVVASNIDEKTLKREGVCAASLPTTMGVVAGILVQNVLKFLLKFGTVSFYLGYNAMQDFFPTMFMKPNPQCDDKNCRKQQEEYKKRAAALPTQEAEPQEEAEVVHEDNEWGIELVSEVSEEELKNSSGPVPTLPEGITVAYTVPKKTEDSASEVTVEDSGESLEDLMARMKNM
In the case of B1, the binding entry is “binds”.
